# Experimental data published in PubChem BioAssay AID493014 (National Center for Advancing Translational Sciences (NCATS), 2011).
# Some of the results follow. Shown are side measurements of this screen, not its main read-out; they come without a call. Most of these compounds were active or inconclusive in the main read-out, so they are no random draw. Words in brackets tell the shape of the fitted curve; partial curves, single points and poor fits give uncertain potencies.
# Test: qHTS Assay to Find Inhibitors of Chronic Active B-Cell Receptor Signaling
# Conditions: ABC-DLBCL IkBa-CBG/CBR reporter, luminescence ratio (green luciferase fused to IkBa over red control in TMD8 lymphoma cells), 4 h
# Summary of the method: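 Concentration-response series (up to 46 uM) were applied to TMD8 dual-reporter cells for 4 h at 37C with doxycycline. Green/red ratio, after filter-overlap correction, defined %Activity; red signal alone was normalised to basal cells and zero luminescence.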
# [1] = measured here: CBR red luminescence, cell number
# [2] = measured here: IkBa-CBG green luminescence
SMILES,AC50 [1],AC50 [2]
CC(C)(C)[C@@H]1COC(=O)[C@H](Cc2ccc(F)cc2)CC/C=C\C[C@@H](CC(=O)N(CCO)Cc2ccccc2)C(=O)N1,"32.6 µM [falling, partial curve, poor fit]",
O=C(Oc1ccc2c(c1)O/C(=C\c1ccncc1)C2=O)c1cccs1,"5.01 µM [falling, single point]",
CCN1CCN(Cc2c(O)ccc3c(=O)c(-c4ccc(OC)c(OC)c4)c(C)oc23)CC1,"3.98 µM [rising, single point]",
CC(=O)N1CCC(C(=O)Nc2ccccc2)(N(Cc2ccccc2)C(=O)c2cccnc2)CC1,"17.8 µM [falling, partial curve]",
COC(=O)C1=CNC=C(C(=O)OC)C1c1cccc2ccccc12,"35.5 µM [falling, single point]",
CCc1ccc(S(=O)(=O)/N=C2/C=C(Sc3ncn[nH]3)C(=O)c3ccccc32)cc1,"2.31 µM [falling, full curve, poor fit]","25.9 µM [falling, single point]"
CCCNc1nc2c(c(=O)n(C)c(=O)n2C)n1CCC(C)C,"3.98 µM [falling, partial curve, poor fit]",
CCCCCCC(=O)Nc1nc(C)c(-c2csc(Nc3ccccc3OC)n2)s1,"3.55 µM [falling, partial curve]",
CN1C(=O)[C@H]2[C@@H](C3CC3)N3C(=O)CN(Cc4ccc(-c5ccccc5)cc4)C(=O)[C@@]3(C)[C@H]2C1=O,"4.47 µM [falling, partial curve, poor fit]",
O=C(CNc1ccc(Br)cc1)c1ccc(Br)s1,"0.708 µM [falling, full curve, poor fit]",
Cc1ccc2oc(=O)c3cnn(CC(=O)NCCc4ccsc4)c3c2c1,"18.4 µM [falling, single point]",
CC(=O)c1c(C)nc(-c2ccc3c(c2)OCO3)n1O,"12.6 µM [falling, partial curve]",
Cc1cc(C(C)(C)C)oc1C(=O)Nc1ccc(CC(=O)O)cc1,"17.8 µM [rising, single point]",
O=C(NCc1nc2ccccc2[nH]1)C1=C[C@H](C2CC2)C[C@H](OCc2ccc(CO)cc2)O1,"15.8 µM [falling, partial curve]",
Nc1ccc(C(=O)n2c3ccccc3c3ccccc32)cc1,"16.4 µM [rising, partial curve]","8.2 µM [falling, partial curve]"
Cc1ccc(SCC(=O)Nc2nccs2)cc1,"10 µM [falling, partial curve, poor fit]",
CCC(C)n1c(-c2cc(OC)c(OC)c(OC)c2)nc2nc3ccccc3nc21 (stereo unspecified),"18.4 µM [falling, single point]",
CCOC(=O)C1CCN(C(=O)c2cc3ccc(OC)cc3[nH]2)CC1,"3.98 µM [falling, partial curve, poor fit]",
COc1ccc(NC(=O)c2ccco2)cc1NC(=O)c1ccc(Br)o1,"2.06 µM [rising, partial curve, poor fit]",
Cc1ccc(NC(=O)CS(=O)(=O)c2cn(CC(=O)N3CCOCC3)c3ccccc23)cc1,"2 µM [falling, full curve]",

# Looked up above.
# AC50 [1] with CC(=O)c1c(C)nc(-c2ccc3c(c2)OCO3)n1O reads 12.6 µM [falling, partial curve]
# AC50 [1] with CCCNc1nc2c(c(=O)n(C)c(=O)n2C)n1CCC(C)C reads 3.98 µM [falling, partial curve, poor fit]
# AC50 [1] with Cc1ccc(SCC(=O)Nc2nccs2)cc1 reads 10 µM [falling, partial curve, poor fit]
# AC50 [1] with O=C(CNc1ccc(Br)cc1)c1ccc(Br)s1 reads 0.708 µM [falling, full curve, poor fit]

# Remaining list, next part

SMILES,AC50 [1],AC50 [2]
CCOC(=O)C1CCN(C(=O)c2ccc(Oc3cc(Cl)cc(Cl)c3)o2)CC1,"7.94 µM [falling, partial curve, poor fit]",
Cc1nc(SCC(=O)NCCc2ccccc2)nc(C)c1C,"0.651 µM [rising, partial curve, poor fit]",
CCCc1cc(=O)[nH]c(SCC(=O)c2cc(C)n(C3CC3)c2C)n1,"35.5 µM [falling, partial curve, poor fit]",
Cc1ccc(-c2csc(/C(C#N)=C(\O)CCl)n2)cc1,"11.2 µM [rising, single point]",
CCN(CC)CCSc1nnc2c3cc(C)ccc3n(Cc3ccccc3)c2n1,"6.31 µM [falling, full curve, poor fit]",
Cc1cccc2c(=O)cc(C)n(Cc3ccccc3)c12,"10.3 µM [rising, partial curve]",
Cc1nc2c(C)cccc2cc1C(=O)N/N=C/c1ccc(N(C)C)cc1,"11.6 µM [rising, partial curve]","25.9 µM [falling, partial curve, poor fit]"
Cc1ccc(NC(=O)CSc2nc3nc(C)cc(C)c3c(=O)[nH]2)cc1,"20.6 µM [falling, partial curve]",
C(=C\c1nccc2c1[nH]c1ccccc12)/c1ccccc1,"5.62 µM [falling, partial curve, poor fit]",
Cc1cccc(NC(=O)c2n[nH]c([N+](=O)[O-])c2Br)c1C,"20 µM [falling, single point]",
Cc1cccc(-c2cccc(NC(=O)C3CCCN(C(=O)c4ocnc4C)C3)c2)c1 (stereo unspecified),"35.5 µM [falling, single point]",
NS(=O)(=O)c1ccc(NC(=O)CSc2nc3ccccc3nc2N2CCOCC2)cc1,"0.447 µM [falling, full curve, poor fit]",
Cc1ccnc(NC(=O)CNC(=O)c2ccc3ccccc3c2)c1,"2.91 µM [rising, full curve]",
COc1ccc(OC)c(/C=N/NC(=O)c2ccc(N(C)S(=O)(=O)c3ccccc3)cc2)c1,"35.5 µM [falling, partial curve, poor fit]",
Cc1nc(CC(=O)O)c(-c2ccccc2)s1,"8.2 µM [falling, partial curve, poor fit]",
CCC(C)N(C(=O)COC(=O)c1nc(Cl)ccc1Cl)C1CCS(=O)(=O)C1 (stereo unspecified),"5.8 µM [falling, partial curve, poor fit]",
C=C(C)c1cccc(C(C)(C)NC(=O)N2CCCCC2CC)c1 (stereo unspecified),"0.92 µM [falling, full curve, poor fit]",
O=C(Oc1ccccc1-c1nnco1)c1ccc(Cl)cc1,"31.6 µM [falling, single point]",
CS(=O)(=O)N1CCN(c2ccccc2NC(=O)c2ccc(-c3ccc(Br)cc3)o2)CC1,"8.2 µM [falling, single point]",
O=C(N/N=C\c1ccc2c(c1)OCO2)c1ccc(Cn2cc(Br)c([N+](=O)[O-])n2)o1,"2.82 µM [falling, partial curve, poor fit]",

SMILES,AC50 [1],AC50 [2]
Cc1ccc(NC(=O)C(=O)NCC2CCCO2)cc1 (stereo unspecified),"3.98 µM [falling, partial curve]",
Cc1cccc(NS(=O)(=O)c2cc(C(=O)NCCC3=CCCCC3)ccc2Cl)c1,"10 µM [falling, partial curve]",
CN1/C(=C\C(=O)COC(=O)CNC(=O)c2ccc3ccccc3c2)C(C)(C)c2ccccc21,"29.1 µM [falling, single point]",
Cc1nc([N+](=O)[O-])c(Sc2nc3ccccc3n2C)n1Cc1ccccc1,"20.6 µM [falling, partial curve, poor fit]","25.9 µM [rising, partial curve, poor fit]"
c1ccc(N/N=C2\CCCc3ccccc32)nc1,"0.891 µM [rising, full curve, poor fit]",
COC(=O)c1ccc(NC(=O)CSc2nnc(CNc3ccc(F)cc3)n2C)cc1,"25.9 µM [falling, single point]",
COc1ccc(-c2cc(C3CCN(c4ccc(C(C)=O)cc4[N+](=O)[O-])CC3)[nH]n2)cc1,"31.6 µM [falling, single point]",
CCOc1cc(N2CCOCC2)c(OCC)cc1NC(=O)c1cccc(S(=O)(=O)N2CCOCC2)c1,"3.26 µM [rising, full curve, poor fit]",
CNC(=S)N/N=C(\C)c1ccc(C)c(C)c1,"20.6 µM [falling, single point]","23.1 µM [falling, single point]"
CC(OCC(O)CN(C)Cc1nc2ccccc2c(=O)[nH]1)c1ccc(Cl)cc1 (stereo unspecified),"12.6 µM [falling, single point]",
CC(C)Nc1ccc(C(CC(N)=O)NC(=O)Cc2cccc3ccccc23)cc1[N+](=O)[O-] (stereo unspecified),"0.562 µM [rising, full curve, poor fit]",
Cc1ccc(C)c(Nc2ncnc3c2cnn3-c2ccc(F)cc2)c1,"12.6 µM [falling, partial curve, poor fit]",
CCOC(=O)C1CCN(C(=O)CC2(CC(=O)O)CCCC2)CC1,"10 µM [rising, partial curve]",
Cc1ncoc1C(=O)NCc1ccccc1Cl,"35.5 µM [falling, single point]",
COc1ccc(C)cc1NS(=O)(=O)c1ccc(-c2cnc(C3CC3)o2)cc1,"2.82 µM [rising, full curve, poor fit]","4.47 µM [falling, full curve]"
Cc1cc2ncc(C(=O)Nc3ccccc3)c(C)n2n1,"2.91 µM [rising, partial curve, poor fit]",
O=C1OC(C(=O)O)Cc2ccccc21 (stereo unspecified),"25.9 µM [rising, partial curve, poor fit]",
CCOc1ccc(/C=C/C(=O)c2cc(Br)ccc(=O)c2O)cc1,"18.4 µM [falling, partial curve]",
Nc1nc(Cl)cc(Sc2ccc(F)cc2)n1,"7.31 µM [rising, partial curve]",
Cc1ccc(-c2c(C)sc3ncn(CC(=O)N4CCOCC4)c(=O)c23)cc1C,"6.31 µM [rising, single point]",
